The target of one test is T1, GST-USP39 (human) (UniProt Q53GS9).
T1 sequence: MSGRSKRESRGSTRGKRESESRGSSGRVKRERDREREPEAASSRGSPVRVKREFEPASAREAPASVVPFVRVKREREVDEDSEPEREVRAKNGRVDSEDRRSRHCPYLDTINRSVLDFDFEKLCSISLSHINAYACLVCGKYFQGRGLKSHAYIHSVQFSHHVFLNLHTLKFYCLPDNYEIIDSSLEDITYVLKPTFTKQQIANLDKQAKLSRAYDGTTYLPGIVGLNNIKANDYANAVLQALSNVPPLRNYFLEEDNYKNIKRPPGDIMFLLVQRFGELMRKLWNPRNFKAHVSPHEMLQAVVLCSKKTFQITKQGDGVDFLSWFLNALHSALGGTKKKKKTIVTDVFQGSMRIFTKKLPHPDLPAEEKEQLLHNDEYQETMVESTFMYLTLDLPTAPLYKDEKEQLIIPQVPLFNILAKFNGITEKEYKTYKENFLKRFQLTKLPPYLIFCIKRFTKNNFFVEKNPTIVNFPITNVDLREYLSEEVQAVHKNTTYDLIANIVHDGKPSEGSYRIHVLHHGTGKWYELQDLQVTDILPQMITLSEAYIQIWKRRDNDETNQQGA
The test is described as follows: pull-down; purified GST-tagged protein incubated with lysate of HEK 293T cells expressing HA-β-catenin (and Flag-Ub), 4 h at 4 °C, western blot; only the target purified.

Protein sequences, listed by entry. Tags and fused reporters are not part of them.
UniProt P35222: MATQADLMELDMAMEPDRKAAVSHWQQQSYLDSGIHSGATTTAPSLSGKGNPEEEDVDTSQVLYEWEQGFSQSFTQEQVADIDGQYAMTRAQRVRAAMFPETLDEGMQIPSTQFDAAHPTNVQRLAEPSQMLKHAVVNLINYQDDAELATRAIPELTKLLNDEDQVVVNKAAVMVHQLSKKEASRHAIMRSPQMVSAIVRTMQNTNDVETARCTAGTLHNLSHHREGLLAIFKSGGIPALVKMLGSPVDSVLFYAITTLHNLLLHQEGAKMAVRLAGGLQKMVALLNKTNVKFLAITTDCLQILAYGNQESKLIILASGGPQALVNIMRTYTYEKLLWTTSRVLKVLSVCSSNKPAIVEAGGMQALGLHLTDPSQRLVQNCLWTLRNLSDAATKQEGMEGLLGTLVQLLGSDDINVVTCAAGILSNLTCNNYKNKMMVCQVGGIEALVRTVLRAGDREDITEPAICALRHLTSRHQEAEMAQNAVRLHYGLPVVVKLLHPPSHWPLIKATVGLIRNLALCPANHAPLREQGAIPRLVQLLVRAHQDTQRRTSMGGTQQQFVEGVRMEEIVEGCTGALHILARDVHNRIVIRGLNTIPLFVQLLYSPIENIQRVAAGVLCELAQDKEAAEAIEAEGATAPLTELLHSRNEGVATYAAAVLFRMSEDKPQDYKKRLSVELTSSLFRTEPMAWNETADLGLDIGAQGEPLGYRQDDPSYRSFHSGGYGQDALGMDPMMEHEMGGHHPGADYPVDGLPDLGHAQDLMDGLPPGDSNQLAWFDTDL

In test [1] the target is T2, Ubiquitin-specific protease 39 (USP39) (human) (UniProt Q53GS9).
T2 sequence: T1 sequence
The test is described as follows: co-IP; PLC/PRF/5 cell lysate in RIPA buffer with PMSF, protein A/protein G agarose beads, 4 h at 4 °C, western blot. Background: In western blotting, separated proteins are transferred to a membrane and probed.

These are yes or no findings as the source states them, for the method shown. Binding seen in cells or lysates may run through a third protein. Some binding calls cover weakened binding; strength is not graded here. For some assays here: Where a sequence is shown, tags or fusion partners need not be part of it.

With “HA-β-catenin (from UniProt P35222 1-781)”, in the test with GST-USP39 (human), the binding result was “binds”.

Consider β-catenin (from UniProt P35222 1-781), for which the binding entry in test [1] was “binds”.
